PubChem BioAssay AID1259405, NCATS | 2018
In all, the deposit lists about 50,000 reagents; this is a random part of them. Over the whole deposit, about 4,000 (8%) were called active. 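Mouse siRNA library applied to hamster cells; one well for each siRNA.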 Entries without a mark were called inactive. The numbers tell different reagents against one gene apart.

Purpose: 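Silenced genes that increase secreted GFP made by CHO cells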 (primary screen)
Cell system: Chinese hamster CHO-K1 ovary cells with stable secreted eGFP expression
Knock-down reagent: single siRNA against mouse genes, 0.8 pmol siRNA per well (2 µl of 400 nM stock)
Time to read-out: 3 days
Read-out: 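Per-well intracellular GFP measured by laser scanning cytometry, plus viability from ATP luminescence, each relative to plate median of non-targeting control wells, in %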
Direction: GFP, % of control: higher = more GFP per well, higher productivity; viability (ATP), % of control: higher = more viable cells (more ATP)
Active means: 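Called active when intracellular GFP, relative to negative control, is at or above 120%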

| gene | reagent no. | GFP, % of control | viability (ATP), % of control |
| --- | --- | --- | --- |
| Il7 | 1 | 76.5 | 116 |
| Il7 | 2 | 74.4 | 92.4 |
| Tmem220 | 1 | 124 (active) | 69.6 |
| Tmem220 | 2 | 35.9 | 20.4 |
| Tmem220 | 3 | 67.5 | 87.5 |
| Cdkn1b | 1 | 53.9 | 64 |
| Cdkn1b | 2 | 77.9 | 63 |
| Rxrb | 1 | 12.2 | 77.6 |
| Rxrb | 2 | 72.2 | 70.2 |
| Rxrb | 3 | 77.5 | 77.6 |
| Esr2 | 1 | 49.6 | 72.8 |
| Esr2 | 2 | 72.4 | 81.8 |
| Esr2 | 3 | 73 | 85.7 |
| Vmn1r237 | 1 | 132 (active) | 109 |
| Vmn1r237 | 2 | 58.9 | 77 |
| Vmn1r237 | 3 | 62.6 | 72.2 |
| Retnlg | 1 | 113 | 76.4 |
| Retnlg | 2 | 66.3 | 68.5 |
| Retnlg | 3 | 63.2 | 98.8 |
| Gm10643 | 1 | 88 | 98.4 |
| Gm10643 | 2 | 99.3 | 97.2 |
| Gm10643 | 3 | 87.6 | 79.4 |
| Vps45 | 1 | 56.4 | 61.4 |
| Vps45 | 2 | 220 (active) | 69.4 |
| Vps45 | 3 | 82.6 | 71 |
| Lrtm2 | 1 | 29.4 | 36.9 |
| Lrtm2 | 2 | 64.9 | 48.9 |
| Lrtm2 | 3 | 78.6 | 67.4 |
| Or52a5b | 1 | 87.5 | 65.4 |
| Or52a5b | 2 | 96.2 | 51.9 |
| Or52a5b | 3 | 128 (active) | 99.9 |
| Col7a1 | 1 | 56.7 | 94.5 |
| Col7a1 | 2 | 51.8 | 93.4 |
| Wnt2 | 1 | 79.5 | 86.8 |
| Wnt2 | 2 | 67.8 | 84.7 |
| Wnt2 | 3 | 69.6 | 46.2 |
| Sohlh1 | 1 | 48.1 | 68.5 |
| Sohlh1 | 2 | 54.8 | 89.4 |
| Sohlh1 | 3 | 101 | 67.4 |
| Sertad3 | 1 | 194 (active) | 88.4 |
| Sertad3 | 2 | 59.2 | 55.2 |
| Sertad3 | 3 | 74.2 | 89.5 |
| Sertad3 | 4 | 74.2 | 89.5 |
| Sertad3 | 5 | 117 | 83.1 |
| Sertad3 | 6 | 128 (active) | 84.4 |
| Zxdc | 1 | 64.8 | 76.8 |
| Zxdc | 2 | 49.1 | 78.6 |
| Zxdc | 3 | 108 | 110 |
| Eif2b1 | 1 | 94.7 | 109 |
| Eif2b1 | 2 | 65.9 | 77.4 |
| Eif2b1 | 3 | 79 | 52.3 |
| Tpbpa | 1 | 93.1 | 49.4 |
| Tpbpa | 2 | 73.7 | 93.5 |
| Tpbpa | 3 | 196 (active) | 138 |
| H2-Q2 | 1 | 38.3 | 75.1 |
| H2-Q2 | 2 | 90.2 | 93 |
| H2-Q2 | 3 | 85.3 | 96.5 |
| Rgma | 1 | 68.3 | 66.4 |
| Rgma | 2 | 44 | 52 |
| Rgma | 3 | 69.9 | 79.7 |
| Npffr2 | 1 | 45.9 | 42 |
| Npffr2 | 2 | 94.3 | 99.8 |
| Npffr2 | 3 | 48.7 | 70.2 |

Entries listed so far with an active call, once more:
| gene | reagent no. | GFP, % of control | viability (ATP), % of control |
| --- | --- | --- | --- |
| Tmem220 | 1 | 124 (active) | 69.6 |
| Vmn1r237 | 1 | 132 (active) | 109 |
| Vps45 | 2 | 220 (active) | 69.4 |
| Or52a5b | 3 | 128 (active) | 99.9 |
| Sertad3 | 1 | 194 (active) | 88.4 |
| Sertad3 | 6 | 128 (active) | 84.4 |
| Tpbpa | 3 | 196 (active) | 138 |

Further results:
| gene | reagent no. | GFP, % of control | viability (ATP), % of control |
| --- | --- | --- | --- |
| Mtrf1l | 1 | 74.7 | 73.6 |
| Mtrf1l | 2 | 81.8 | 61.5 |
| Mtrf1l | 3 | 78.1 | 40.6 |
| Trmt10a | 1 | 49.7 | 70.8 |
| Trmt10a | 2 | 60.3 | 57.9 |
| Trmt10a | 3 | 70 | 40.3 |
| S100a1 | 1 | 66.6 | 107 |
| S100a1 | 2 | 77.8 | 78.3 |
| Gdap1 | 1 | 69.8 | 50.8 |
| Gdap1 | 2 | 69.9 | 71.5 |
| Gdap1 | 3 | 59.7 | 61.9 |
| 1700129C05Rik | 1 | 81.7 | 87 |
| 1700129C05Rik | 2 | 80.7 | 90.1 |
| 1700129C05Rik | 3 | 82.2 | 87.4 |
| Acadm | 1 | 83.5 | 73.3 |
| Acadm | 2 | 82 | 73.7 |
| Acadm | 3 | 75.6 | 67 |
| Mir9-2hg | 1 | 43.8 | 51.9 |
| Mir9-2hg | 2 | 54.3 | 81.4 |
| Mir9-2hg | 3 | 114 | 116 |
| Prpf40b | 1 | 74.4 | 72 |
| Prpf40b | 2 | 49.1 | 60.3 |
| Prpf40b | 3 | 67.5 | 52.9 |
| Top2a | 1 | 77.3 | 98.2 |
| Top2a | 2 | 71 | 67.3 |
| Top2a | 3 | 28.9 | 43.9 |
| Pou3f3 | 1 | 80.7 | 111 |
| Pou3f3 | 2 | 56.1 | 73.1 |
| Pou3f3 | 3 | 49.9 | 68.3 |
| Rpp40 | 1 | 41.4 | 49.2 |
| Rpp40 | 2 | 96 | 89.7 |
| Rpp40 | 3 | 49.5 | 49.4 |
| Antxr2 | 1 | 69.5 | 66 |
| Antxr2 | 2 | 80.9 | 66 |
| Antxr2 | 3 | 70.8 | 76.7 |
| Babam1 | 1 | 73.8 | 60.7 |
| Babam1 | 2 | 87 | 80.7 |
| Babam1 | 3 | 102 | 94.8 |
| C5ar1 | 1 | 71.7 | 69.5 |
| C5ar1 | 2 | 86.6 | 101 |
| C5ar1 | 3 | 46.4 | 48.2 |
| Tmx1 | 1 | 100 | 104 |
| Tmx1 | 2 | 159 (active) | 133 |
| Tmx1 | 3 | 92.3 | 88.7 |
